Test results from patent US20050107432A1, “Sigma receptor binder containing indanone derivative” (priority 2002, published 2005).
Structures can show the parent of a compound that is named as a salt.

Molecular target: Sigma receptor
Experiment: Sigma receptor binding assay (3H-DTG, guinea pig brain crude membrane fraction)
Settings: inhibition of 3H-DTG binding to guinea pig brain crude membrane fraction, 25° C., 1 hour
Method: Sigma Receptor Binding Assay
(1) Preparation of Receptor
Ten male guinea pigs (Crj, Hartley, from Charles River Japan, Inc.) (body weight: 234 g to 260 g) were decapitated, exsanguinated and died. The brain was immediately removed, homogenized with ten volumes of 50 mM Tris-HCl (pH 7.4) using a Teflon homogenizer and was centrifuged at a rate of 50000× g at 4° C. for 20 minutes. The washing procedure was repeated once more under the same conditions, and the resulting crude membrane fraction was subjected to the assay.
The filter paper was transferred to a vial for radioactivity measurement, mixed with 5 mL of a liquid scintillation cocktail (Atomlight, from PACKARD), and the radioactivity on the filter was determined by a liquid scintillation counter (Model 1500, from PACKARD) for 2 minutes. The specific binding and the non-specific binding in the absence of the test compound were determined in the same way as above except for using 50% DMSO solution instead of the test compound and using a 100 μM Haloperidol solution instead of the test compound, respectively.
(3) Determination of Inhibition
The inhibitions of the test compound at individual concentrations were determined from the ratio of the specific binding in the presence of the test compound to the specific binding in the absence thereof. […]

`COc1cc2c(cc1OC)C(=O)C(CC1CCN(Cc3ccccc3)CC1)C2` (stereo not shown) [Control, 1-benzyl-4-[(5,6-dimethoxy-1-indanon)-2-yl]methylpiperidine hydrochloride, reference compound] was tested, and the IC50 was 18.7 nM.
